The target of this assay is Cse4 (overexpressed from the GAL promoter on a 2-μm plasmid) (budding yeast) (UniProt P36012). The assay can be described thus: co-IP; cell lysates of strains overexpressing Cse4 from the GAL promoter; IP with anti-Cse4 antibody, Psh1-HA detected; control IP without antibody.

Sequences of proteins named here, by UniProt entry; tags and fusion partners are left off. A change or cut given only in a name is not applied to a line headed by its entry.
UniProt P36012: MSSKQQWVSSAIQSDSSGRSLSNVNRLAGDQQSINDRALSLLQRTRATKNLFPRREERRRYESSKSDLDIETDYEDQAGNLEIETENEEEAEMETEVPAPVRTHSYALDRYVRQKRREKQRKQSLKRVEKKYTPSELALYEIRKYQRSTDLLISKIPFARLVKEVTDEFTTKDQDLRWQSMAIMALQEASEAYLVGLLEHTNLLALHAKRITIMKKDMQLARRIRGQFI
UniProt Q12161: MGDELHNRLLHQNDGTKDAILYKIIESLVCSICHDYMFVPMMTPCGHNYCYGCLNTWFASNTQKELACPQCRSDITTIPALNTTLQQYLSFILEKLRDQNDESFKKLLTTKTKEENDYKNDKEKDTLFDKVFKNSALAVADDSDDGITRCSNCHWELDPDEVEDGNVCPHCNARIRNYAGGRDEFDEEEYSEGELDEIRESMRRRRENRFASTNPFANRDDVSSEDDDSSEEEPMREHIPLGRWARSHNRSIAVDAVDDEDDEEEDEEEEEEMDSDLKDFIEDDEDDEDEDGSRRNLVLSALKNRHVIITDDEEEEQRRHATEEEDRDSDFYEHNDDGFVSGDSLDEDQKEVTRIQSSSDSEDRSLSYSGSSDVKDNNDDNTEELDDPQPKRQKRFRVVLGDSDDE

Results are given in words; binding and its absence hold for the method and conditions named. In cells and extracts the contact can be indirect. Binding calls can cover weak binding; strength is not graded here.

Take “Psh1-S6D-HA (from UniProt Q12161) (enzyme)”: the binding entry is recorded as “binds”.
